The text below walks through data of publication PMC6361795.

Sequences of proteins named here, by UniProt entry; tags and fusion partners are left off. A change or cut given only in a name is not applied to a line headed by its entry.
UniProt A0QST8: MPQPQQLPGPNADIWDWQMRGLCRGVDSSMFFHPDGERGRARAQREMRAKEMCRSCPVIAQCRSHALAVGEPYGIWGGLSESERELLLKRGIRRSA

The exact form of at least one protein or probe is not confirmed.

The data set has as its target apo-WhiB3, diamide-treated (Mycobacterium smegmatis MC2 155) (UniProt A0QST8). Put plainly: EMSA. To be noted: apo-WhiB3 treated with diamide, anaerobic, 10 nM probe; EMSA: 25°C, 20 min; 10 nM biotin probe; 100 V; binding buffer; recombinant protein; residues 1-96; protein details: His-tag (pET-28a); label: biotin (universal biotinylated primer S1); probe letters rebuilt from the primers and the genome. (In general: A gel shift assay detects complexes by their altered migration in electrophoresis.)

With “AGCCAGTGGCGATAAGTTACGGAAAAGCGAATAAAACCCCCCTCGCCACGGCTTTTCTCGGATGGCATGTGGCATACGGGCCGTGGTACTAAGTACGCCGATCGCGTCATTAGTAGGGGAAGCTTTGACTCAAAATTGTGTTGCTCCTGTTGCCATCATCCTTATCGCCACTGGCT (double strand) [pks5 promoter probe]”, the binding result is “binds”.
